Test results taken from publication PMC8967837.

Protein sequences, listed by entry. Tags and fused reporters are not part of them. Lines headed by an entry give the natural chain unless they say otherwise; changes in a name come on top.
UniProt Q9SW23: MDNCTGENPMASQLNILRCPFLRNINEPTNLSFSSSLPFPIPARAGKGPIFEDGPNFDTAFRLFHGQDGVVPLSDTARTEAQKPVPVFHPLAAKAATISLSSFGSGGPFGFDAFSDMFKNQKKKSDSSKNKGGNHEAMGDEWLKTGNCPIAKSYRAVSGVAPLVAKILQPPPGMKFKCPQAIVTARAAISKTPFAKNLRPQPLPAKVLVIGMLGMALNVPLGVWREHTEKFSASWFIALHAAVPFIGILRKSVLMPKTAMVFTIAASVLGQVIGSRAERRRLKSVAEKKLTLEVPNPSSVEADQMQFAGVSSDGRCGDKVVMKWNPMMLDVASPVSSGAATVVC

Experiments:
[1] = target: T1, HopG1 fused to the GAL4 DNA-binding domain (pDEST32::HopG1) (Pseudomonas syringae pv. tomato DC3000) (UniProt Q87W42); experiment: two-hybrid; HopG1 as bait (pDEST32, GAL4 DNA-binding domain), AtNHR2B as prey (pDEST22, GAL4 activation domain); yeast MaV203; growth on TDO (SD/-His/-Leu/-Trp) + 15 mM 3-AT, 30 °C, 4 days
T1 sequence: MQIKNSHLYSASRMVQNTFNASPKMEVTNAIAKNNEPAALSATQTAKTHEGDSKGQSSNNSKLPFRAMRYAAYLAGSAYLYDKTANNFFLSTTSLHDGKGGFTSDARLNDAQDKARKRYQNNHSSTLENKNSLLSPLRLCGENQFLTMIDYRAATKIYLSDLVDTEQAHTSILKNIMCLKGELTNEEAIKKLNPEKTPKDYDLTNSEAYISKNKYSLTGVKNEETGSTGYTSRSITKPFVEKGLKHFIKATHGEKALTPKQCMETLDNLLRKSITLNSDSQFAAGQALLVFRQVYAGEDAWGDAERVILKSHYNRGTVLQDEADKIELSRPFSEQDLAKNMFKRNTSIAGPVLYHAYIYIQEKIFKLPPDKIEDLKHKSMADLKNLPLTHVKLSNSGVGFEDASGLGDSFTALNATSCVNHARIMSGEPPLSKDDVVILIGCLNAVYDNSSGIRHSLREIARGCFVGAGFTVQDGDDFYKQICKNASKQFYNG

[2] = target: AtNHR2B-GFP (Arabidopsis thaliana); experiment: co-IP; co-expression in N. benthamiana leaves; 1 mg total protein extract with GFP Nanobody/VHH agarose beads (GFP-Trap), 3 h 30 min at 4 °C; washes with TBS 150 mM NaCl once and 500 mM NaCl twice; Western blot with anti-FLAG and anti-GFP
[3] = target: AtNHR2B fused to the N-terminal encoding half of EYFP (nEYFP-AtNHR2B) (Arabidopsis thaliana); experiment: split reporter; BiFC with nEYFP and cEYFP halves, transient co-expression in N. benthamiana; laser scanning confocal microscopy, excitation 488 nm, emission 500-535 nm

Molecule: AtNHR2B fused to the GAL4 activation domain (pDEST22::AtNHR2B) (from UniProt Q9SW23)
- binding [1]: binds

B1: HopG1 fused to the FLAG epitope (HopG1-FLAG) (protein, UniProt Q87W42 1-493)
chain: T1 sequence
- binding [2]: binds

B2: HopG1 fused to the C-terminal encoding half of EYFP (HopG1-cEYFP) (protein, UniProt Q87W42 1-493)
chain: T1 sequence
- binding [3]: binds

These are yes or no findings as the source states them, for the method shown. A result given as binding can be weak or reduced; the word gives no strength. Tags and fused reporters may be left off the sequences shown. For part of these data: Binding seen in cells or lysates may run through a third protein.
